{
  "source": "patent EP1941863A2",
  "about": "“External preparation composition” (Lion Corporation, priority 2002, dated 2004)",
  "experiment": "solubility in the ethanol/propylene glycol (7 : 3) solvent (Japanese Pharmacopoeia criteria)",
  "format": "physicochemical",
  "settings": "20°C, within 30 minutes, amount of solvent for 1 g or 1 ml of solute",
  "note": "The name of at least one read-out is uncertain.",
  "data": [
    {"substance": "N-retinoyl-D-glucosamine", "values": [
      {"measurement": "Solubility", "result": "○ (soluble, 10 ml or more and less than 100 ml)"}
    ]}
  ]
}
